US20260337228A1, “COMPOSITION AND METHOD FOR TREATING NEONATAL HYPOXIC-ISCHEMIC ENCEPHALOPATHY” (SUZHOU GLENKOL PHARMA TECHNOLOGY CO., LTD., priority 2023, published 2026)
Part of at least one peptide drawing is inferred or uncertain, most often the ends. Ends that are not written are not given here.

System: brain tissue
Assay: Brain tissue injury assessment with TTC in neonatal hypoxic-ischemic encephalopathy
Type: in vivo, neonatal rats (seven-day-old)
Details: 10 mg/kg, tail vein injection 1 hour after injury; 48 hours post injury; untreated 54.9%

## YGRKKRRQRRRKKNRNKLRRQHSY [S1]
  brain tissue survival rate: 75.4%

## YGRKKRRQRRRNRRRNSKLQHKKY [scrambled peptide, reference compound]
  brain tissue survival rate: 52.5%
